Paper PMC1831492
Construct, isoform or probe ends are uncertain for at least one entry. A negative result means that nothing was seen under these conditions. Tags and fusion partners may be left off the protein sequences shown.

Target: T1, CTCF 11ZF DNA-binding domain (UniProt P49711)
T1 sequence (looked up, limits assumed): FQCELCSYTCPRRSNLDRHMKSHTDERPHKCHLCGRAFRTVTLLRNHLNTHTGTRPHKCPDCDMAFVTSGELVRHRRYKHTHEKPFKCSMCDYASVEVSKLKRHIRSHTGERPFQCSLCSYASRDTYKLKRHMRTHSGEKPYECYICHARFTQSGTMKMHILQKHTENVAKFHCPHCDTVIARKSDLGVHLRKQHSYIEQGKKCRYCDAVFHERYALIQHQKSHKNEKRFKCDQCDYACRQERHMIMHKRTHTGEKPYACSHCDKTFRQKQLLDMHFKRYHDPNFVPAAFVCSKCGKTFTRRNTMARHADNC
Test: EMSA
Conditions: 0.1 mM ZnSO4, 5 mM MgCl2; PBS with 5 mM MgCl2, 0.1 mM ZnSO4, 1 mM DTT, 0.1% NP40, 10% glycerol, poly(dI-dC) and salmon sperm DNA; 20 ul, 30 min, room temperature; 5% PAGE in 0.5x TBE; protein translated in vitro; label: 32P; probe letters rebuilt from the primers and the genome

Does “AAATGTAGCCACACTAGCGTGGGGGATTTGAGGTGAGACATCGAAAATACTAAGTCATGGTGAGGGCTGGAAGACAAAAGAATGAATCACTTAATAGGAATGGCTGTGGGGAAGGGCTTGAAGGAATCATCCTCTGACTTCCATGTGAACCGTGAACATTAAACATGGAGAAATGAGGAGCGGCGGCAGATCGGTTTGGGATGCATCTTCAGGGGATGCTGAAACAACAACAGCATTTGGTTTG (double strand) [SPANX promoter -490 to -246]” bind?
Result: no binding
